Measurements as given in publication PMC8631515 (Frontiers in Oncology, 2021).
Results are given in words; binding and its absence hold for the method and conditions named. Some results given as binding are weak or reduced against the parent protein; the word gives no strength.

Amino acid sequences for entries named in this document (tags omitted).
UniProt Q9NZQ7: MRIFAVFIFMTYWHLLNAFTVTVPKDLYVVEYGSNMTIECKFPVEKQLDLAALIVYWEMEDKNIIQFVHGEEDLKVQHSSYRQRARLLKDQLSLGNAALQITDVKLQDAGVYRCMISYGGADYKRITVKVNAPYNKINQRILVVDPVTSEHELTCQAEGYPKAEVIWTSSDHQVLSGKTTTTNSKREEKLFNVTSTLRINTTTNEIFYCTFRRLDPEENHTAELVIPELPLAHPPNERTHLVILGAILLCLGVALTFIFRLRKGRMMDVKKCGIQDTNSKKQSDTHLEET

Target: Programmed death-ligand 1 (PD-L1), Tag1-PD-L1 (UniProt Q9NZQ7)
Assay: AlphaScreen or HTRF; Cisbio HTRF PD1/PD-L1 binding assay kit; Tag1-PD-L1 and Tag2-PD1 detected with anti-Tag1-Europium (donor) and anti-Tag2-XL665 (acceptor); peptide or conjugate varied as blocker; IC50 from a sigmoidal (Hill) fit; n = 3; both purified

RHTNDYSQFYPK (all residues in D-form) [random polypeptide (RAN)]
binding: binds weakly
